Results from doi:10.1101/2024.10.24.620053.
These are yes or no findings as the source states them, for the method shown. In cells and extracts the contact can be indirect. Some binding calls cover weakened binding; strength is not graded here.

Amino acid sequences for entries named in this document (tags omitted).
UniProt Q9UHD9, whole entry: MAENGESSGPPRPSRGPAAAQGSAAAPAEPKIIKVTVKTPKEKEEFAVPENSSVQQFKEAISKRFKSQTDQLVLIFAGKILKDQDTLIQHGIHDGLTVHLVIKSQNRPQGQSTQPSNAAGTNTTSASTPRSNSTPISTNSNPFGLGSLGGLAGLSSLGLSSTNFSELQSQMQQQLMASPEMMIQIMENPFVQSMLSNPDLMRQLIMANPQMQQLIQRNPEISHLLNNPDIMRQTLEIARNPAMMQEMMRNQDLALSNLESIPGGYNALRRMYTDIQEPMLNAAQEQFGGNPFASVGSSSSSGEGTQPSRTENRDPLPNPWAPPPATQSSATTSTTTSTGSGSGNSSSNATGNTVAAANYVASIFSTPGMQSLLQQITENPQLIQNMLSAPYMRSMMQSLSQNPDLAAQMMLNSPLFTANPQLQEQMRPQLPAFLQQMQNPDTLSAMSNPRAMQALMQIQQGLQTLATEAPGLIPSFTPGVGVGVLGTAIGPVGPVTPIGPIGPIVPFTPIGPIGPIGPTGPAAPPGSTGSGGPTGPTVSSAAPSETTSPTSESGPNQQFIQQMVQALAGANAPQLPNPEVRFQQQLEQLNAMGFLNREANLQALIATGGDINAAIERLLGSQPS
UniProt A6ZKI3, whole entry: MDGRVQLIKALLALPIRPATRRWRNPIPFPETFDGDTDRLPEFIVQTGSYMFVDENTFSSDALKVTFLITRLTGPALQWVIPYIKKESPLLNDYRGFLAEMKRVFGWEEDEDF

Legend:
[1] = target: T1, PEG10 gag-pol (human (endogenous in HEK293 and HeLa)) (UniProt Q86TG7); test: co-IP
T1 sequence: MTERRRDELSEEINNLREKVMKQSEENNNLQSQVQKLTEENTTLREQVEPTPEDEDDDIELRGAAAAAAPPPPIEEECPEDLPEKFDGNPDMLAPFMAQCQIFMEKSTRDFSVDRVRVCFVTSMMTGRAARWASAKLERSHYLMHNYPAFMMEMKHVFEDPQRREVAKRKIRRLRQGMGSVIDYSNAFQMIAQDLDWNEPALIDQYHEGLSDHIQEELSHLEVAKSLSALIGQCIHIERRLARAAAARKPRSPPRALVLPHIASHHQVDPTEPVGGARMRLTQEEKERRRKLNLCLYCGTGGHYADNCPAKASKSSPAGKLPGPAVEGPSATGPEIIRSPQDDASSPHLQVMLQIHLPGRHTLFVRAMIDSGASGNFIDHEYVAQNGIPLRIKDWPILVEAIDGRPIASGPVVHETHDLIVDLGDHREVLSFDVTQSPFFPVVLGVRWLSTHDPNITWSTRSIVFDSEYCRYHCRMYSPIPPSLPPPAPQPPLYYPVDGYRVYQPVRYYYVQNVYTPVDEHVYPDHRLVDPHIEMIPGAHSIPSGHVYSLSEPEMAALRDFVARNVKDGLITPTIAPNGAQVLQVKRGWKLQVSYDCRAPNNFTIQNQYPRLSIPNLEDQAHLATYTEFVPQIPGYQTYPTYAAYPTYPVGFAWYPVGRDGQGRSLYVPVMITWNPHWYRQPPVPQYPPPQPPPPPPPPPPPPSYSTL

[2] = target: UBQLN2 (human (endogenous in HEK293 and HeLa)) (UniProt Q9UHD9); test: co-IP

binding [1]: binds
binding [2]: binds
Substance: full-length (FL) HA-RTL8C (from UniProt A6ZKI3 1-113)
